# PubChem BioAssay AID504744 | Drosophila RNAi Screening Center – 2011
# Screen: 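Identify dsRNAs that increase or decrease phospho-dAkt after insulin treatment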 (primary screen)
# Cells: Drosophila Kc167 cells
# Knock-down reagent: long dsRNA against Drosophila genes, 250 ng dsRNA per well of a 384-well plate
# Duration: 3 days of knock-down, then overnight serum-free starvation before stimulation
# Conditions: bovine insulin at 387 nM for 10 minutes after 12 h without serum
# Detection: 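In-cell antibody fluorescence for phospho-dAkt in each well over DNA-dye signal, with log2 residuals expressed as z-scores adjusted for cell count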
# Call rule: 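Hit in the insulin screen when the two-replicate mean z-score is more extreme than plus or minus 2.5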
# The screen tested about 23,000 reagents; shown is a random part of those that have a named target and a result. Of all reagents, 98 (0.43%) are marked active. 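Only hit calls are given; the phospho-dAkt signals, z-scores and hit direction were not deposited.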 Names joined by + are all predicted targets of the reagent.
gene knocked down,dsRNA,Outcome
CG30197,DRSC22394,inactive
CG13494,DRSC04139,inactive
Spn28F (Serpin 28F),DRSC03615,inactive
Cyp12b2 (Cytochrome P450 12b2),DRSC07364,inactive
Yp1 (Yolk protein 1),DRSC18731,inactive
Gr9a (Gustatory receptor 9a),DRSC22506,inactive
CG42521,DRSC10154,inactive
stg (string),DRSC17071,inactive
Vps25 (Vacuolar protein sorting 25),DRSC06486,inactive
CG15213,DRSC10213,inactive
CG31949,DRSC00110,inactive
CG12307,DRSC02159,inactive
mRpL20 (mitochondrial ribosomal protein L20),DRSC09828,inactive
CG14929 + CG4970 + CG14930,DRSC02412,inactive
7SLRNA:CR42652 + 7SLRNA:CR32864,DRSC22968,inactive
CG9701,DRSC11093,inactive
CG15544,DRSC15082,inactive
CG5921,DRSC17431,inactive
CG5921,DRSC18390,inactive
Tcs5 (Threonyl-carbamoyl synthesis 5),DRSC09774,inactive
Vajk4,DRSC06589,inactive
Vajk4,DRSC07003,inactive
Serinc (Serine incorporator),DRSC11296,inactive
CG3819,DRSC10378,inactive
bru3 (bruno 3),DRSC09280,inactive
bru3 (bruno 3),DRSC09687,inactive
bru3 (bruno 3),DRSC09887,inactive
bru3 (bruno 3),DRSC22732,inactive
"Polr2K (RNA polymerase II, I and III subunit K)",DRSC05535,inactive
CG14456,DRSC11713,inactive
CG15336,DRSC18019,inactive
CG7135,DRSC20026,inactive
slow (slowdown),DRSC08589,inactive
slow (slowdown),DRSC08590,inactive
e(y)2b (enhancer of yellow 2b),DRSC12556,inactive
Grx5 (Glutaredoxin 5),DRSC19593,inactive
gdl-ORF39 + gdl,DRSC11350,inactive
eIF5 (eukaryotic translation initiation factor 5),DRSC20165,inactive
Nadsyn (NAD synthetase),DRSC20222,inactive
bero (belly roll),DRSC03211,inactive
Ir60a (Ionotropic receptor 60a),DRSC04212,inactive
CG7550,DRSC10875,inactive
CG8851,DRSC00718,inactive
HP4 (Heterochromatin protein 4),DRSC10958,inactive
CG18748,DRSC15385,inactive
CG7492,DRSC10855,inactive
RfC4 (Replication factor C subunit 4),DRSC08691,inactive
shd (shade),DRSC11129,inactive
su(sable) (suppressor of sable),DRSC18839,inactive
CG8960,DRSC08612,inactive
CG15578,DRSC18066,inactive
l(3)mbn (lethal (3) malignant blood neoplasm),DRSC08793,inactive
CG6304,DRSC02948,inactive
Sbds (SBDS ribosome maturation factor),DRSC10992,inactive
CG12436 (retired record),DRSC09869,inactive
CG12436 (retired record),DRSC09885,inactive
CG10051,DRSC05959,inactive
CG14752,DRSC06488,inactive
Sema2b (Semaphorin 2b),DRSC05609,inactive
Sema2b (Semaphorin 2b),DRSC05611,inactive
Sema2b (Semaphorin 2b),DRSC06867,inactive
ebd2 (earthbound 2),DRSC11682,inactive
RpS5b (Ribosomal protein S5b),DRSC16173,active
CG11231 (retired record),DRSC17207,inactive
su(w[a]) (suppressor of white-apricot),DRSC18840,inactive
CG34015,DRSC19140,inactive
"ATPsynB (ATP synthase, subunit B)",DRSC09659,inactive
CG4716,DRSC06884,inactive
flap (flapper),DRSC03918,inactive
flap (flapper),DRSC04087,inactive
fok (fledgling of Klp38B),DRSC02103,inactive
CG14384,DRSC14842,inactive
CG8507,DRSC16435,inactive
CG4282,DRSC06865,inactive
CG14395,DRSC14852,inactive
defl (deflated),DRSC10300,inactive
CG8501,DRSC07198,inactive
CkIIalpha-i1 (CKII-alpha subunit interactor-1),DRSC11115,inactive
Su(dx) (Suppressor of deltex),DRSC00791,inactive
CG14445,DRSC17938,inactive
HP1e (Heterochromatin Protein 1e),DRSC16379,inactive
CG8908,DRSC07297,inactive
CG3546,DRSC18308,inactive
Cyp12c1 (Cytochrome P450 12c1),DRSC11125,inactive
Pxt (Peroxinectin-like),DRSC17040,inactive
CG33155 + mRpL53,DRSC05461,inactive
BomS1 (Bomanin Short 1),DRSC22678,inactive
CG18258,DRSC19798,inactive
Obp28a (Odorant-binding protein 28a),DRSC03394,inactive
CG12075,DRSC17801,inactive
Helz (Helicase with zinc finger),DRSC11072,inactive
p24-1 (p24-related-1),DRSC19827,inactive
CG1941,DRSC06802,inactive
CG32512,DRSC20519,inactive
CG32512,DRSC20551,inactive
CG32512,DRSC21401,inactive
BoYb,DRSC11637,inactive
smo (smoothened),DRSC00837,inactive
narya,DRSC19439,inactive

Next part (17 carried over from the part before).
gene knocked down,dsRNA,Outcome
CG3546,DRSC18308,inactive
Cyp12c1 (Cytochrome P450 12c1),DRSC11125,inactive
Pxt (Peroxinectin-like),DRSC17040,inactive
CG33155 + mRpL53,DRSC05461,inactive
BomS1 (Bomanin Short 1),DRSC22678,inactive
CG18258,DRSC19798,inactive
Obp28a (Odorant-binding protein 28a),DRSC03394,inactive
CG12075,DRSC17801,inactive
Helz (Helicase with zinc finger),DRSC11072,inactive
p24-1 (p24-related-1),DRSC19827,inactive
CG1941,DRSC06802,inactive
CG32512,DRSC20519,inactive
CG32512,DRSC20551,inactive
CG32512,DRSC21401,inactive
BoYb,DRSC11637,inactive
smo (smoothened),DRSC00837,inactive
narya,DRSC19439,inactive
"Brca2 (BRCA2, DNA repair associated)",DRSC04219,inactive
"Brca2 (BRCA2, DNA repair associated)",DRSC04220,inactive
Boh1 (Buddy of Hmr 1),DRSC14487,inactive
CG11438,DRSC11660,inactive
Or67d (Odorant receptor 67d),DRSC10158,inactive
CG31643,DRSC00906,inactive
mthl11 (methuselah-like 11),DRSC12779,inactive
Acsl (Acyl-CoA synthetase long-chain),DRSC07252,inactive
Alp13 (Alkaline phosphatase 13),DRSC15781,inactive
CG10738,DRSC09792,inactive
"E(spl)m6-BFM (Enhancer of split m6, Bearded family member)",DRSC16993,inactive
CG14135,DRSC10140,inactive
CG14238,DRSC14732,inactive
Ncoa6 (Nuclear receptor coactivator 6),DRSC02353,inactive
Mtl (Mig-2-like),DRSC16751,inactive
"SdhD (Succinate dehydrogenase, subunit D)",DRSC14215,inactive
CG33110,DRSC14694,inactive
CG33110,DRSC16137,inactive
CG34263,DRSC07866,inactive
CG34304 (retired record),DRSC12810,inactive
Apc2 (Adenomatous polyposis coli 2),DRSC14115,inactive
CG13875,DRSC08345,inactive
Ran-like,DRSC10918,inactive
CG10984,DRSC09817,inactive
Ankle2,DRSC20105,inactive
Ankle2,DRSC20106,inactive
CG1105,DRSC12528,inactive
Cyp4p1 (Cytochrome P450 4p1),DRSC07372,inactive
Ocrl (Oculocerebrorenal syndrome of Lowe),DRSC18576,inactive
Obp73a (Odorant-binding protein 73a),DRSC09907,inactive
wisp (wispy),DRSC19703,inactive
BBS1 (Bardet-Biedl syndrome 1),DRSC10196,inactive
Cp18 (Chorion protein 18),DRSC11120,inactive
CG13408,DRSC13534,inactive
CG13408,DRSC14584,inactive
CG5860,DRSC15896,inactive
CG4770,DRSC15639,inactive
CG3679,DRSC19346,inactive
Poc1 (Proteome of centrioles 1),DRSC09713,inactive
Tsp39D (Tetraspanin 39D),DRSC03099,inactive
CG13579,DRSC04215,inactive
Top3alpha (Topoisomerase 3alpha),DRSC03460,inactive
CG31550,DRSC12197,inactive
CG31550,DRSC12198,inactive
bc10,DRSC11326,inactive
"Pp1-Y1 (Protein phosphatase 1, Y-linked 1)",DRSC20896,inactive
bgm (bubblegum),DRSC03495,inactive
Ttc19 (Tetratricopeptide repeat domain 19),DRSC02474,inactive
Syb (Synaptobrevin),DRSC07559,inactive
CG10467,DRSC09728,inactive
ATP8 (retired record),DRSC21277,inactive
CG17032,DRSC10241,inactive
mei-9 (meiotic 9),DRSC18792,inactive
CG31210 (retired record) + CG4836,DRSC22066,inactive
lectin-24Db,DRSC00553,inactive
CG31784,DRSC01574,inactive
Tbh (Tyramine beta hydroxylase),DRSC18723,inactive
CG9997,DRSC16591,inactive
